Source: US20240285497A1, “METHOD FOR EVALUATING AN ABILITY OF A TEST SAMPLE TO TRIGGER A FOREIGN BODY REACTION IN THE SKIN, A METHOD FOR SCREENING A SUBSTANCE HAVING AN ABILITY TO INHIBIT A FOREIGN BODY REACTION IN THE SKIN, AND AN AGENT FOR INHIBITING A FOREIGN BODY REACTION IN THE SKIN” (priority 2021, published 2024)
For at least one compound, name, drawing or mass did not settle the structure.

How the values were obtained:
Type in all cases: cell-based, human
[1] = tested on: matrix metalloprotease 9 (MMP9) mRNA; assay: MMP9 mRNA expression in HaCaT cells contacted with test substance, quantitative PCR; conditions: retinoic acid or nicotinamide at predetermined concentrations, 24 hours
Procedure: (§1) In this experiment, the effect of Fraglide-1 on the expression of MMP9 in the level of mRNA was examined first. Specifically, HaCaT cells were treated with Fraglide-1 in the same manner as described in Experiment 3-1 except that HaCaT cells were incubated for 24 hours in the medium containing 0 μM, 1 μM, 10 μM, and 100 μM of Fraglide-1 instead of being incubated for 24 hours in the medium containing both FICZ and Fraglide-1. The total RNA was then extracted, cDNA was prepared, and the quantitative PCR was performed using the obtained cDNA. Herein, the procedure of the quantitative PCR was the same as described in Experiment 3-1 except that the primers shown in below Table 4 were used. In this experiment, the expression of MMP2 mRNA was also quantified in addition to MMP9 mRNA. MMP2 is known as a MMP which is not transcriptionally regulated by a xenobiotic responsive element (XRE). […]
(§2) Next, experiments were performed to inhibit MMP9 and MMP2 in HaCaT cells using retinoic acid (CAS RN: 302-79-4) and nicotinamide (CAS RN: 98-92-0), which are known to be substances having anti-wrinkle effect. […] Then, the total RNA was extracted, cDNA was prepared, and the quantitative PCR was carried out using the obtained cDNA. […]

[2] = tested on: matrix metalloprotease 2 (MMP2) mRNA; assay: MMP2 mRNA expression in HaCaT cells contacted with test substance, quantitative PCR; conditions: retinoic acid or nicotinamide at predetermined concentrations, 24 hours
Procedure: as §1, §2

[3] = tested on: TIMP-1 (Tissue Inhibitor of Matrix Metalloprotease-1) mRNA; assay: TIMP-1 mRNA expression in HaCaT cells, quantitative PCR; conditions: Fraglide-1 1 μM, 10 μM, 100 μM; retinoic acid / nicotinic acid amide at predetermined concentrations; 24 hours
Procedure: Specifically, the mRNA expression of TIMP-1 in the HaCaT cells treated with Fraglide-1 was evaluated by performing quantitative PCR using cDNA obtained in Experiment 4-1. The procedure of quantitative PCR was the same as described in Experiment 4-1 except that the primers shown in below Table 5 were used.
In FIG. 14, the results obtained for each sample were shown in relative values normalized by setting the expression level of TIMP-1 in the HaCaT cells incubated for 24 hours in DMEM medium not containing Fraglide-1 (i.e., the non-treated HaCaT cells) as 1. The results shown in FIG. 14 are the mean of values obtained from three independent experiments, and the error bars represent standard deviation (SD).
On the other hand, as comparison, the similar evaluation was performed for retinoic acid and nicotinamide, which are known as active ingredients of anti-wrinkle agents, using cDNA obtained in Experiment 4-2. The procedure for quantitative PCR was the same as already described in Experiment 3-1, except that the primers shown in Table 5 were used.
In FIG. 15, the results obtained for each sample were shown in relative values normalized by setting the expression level of TIMP-1 in the HaCaT cells incubated for 24 hours in DMEM medium not containing either retinoic acid and nicotinic acid amide (i.e., the non-treated HaCaT cells) as 1. […]

Question: Which results are given for `CC1=C(/C=C/C(C)=C/C=C/C(C)=C/C(=O)O)C(C)(C)CCC1` [retinoic acid]?
Answer: expression of MMP9 mRNA vs non-treated HaCaT cells [1]: decreased expression of MMP9 was also observed; expression of MMP2 mRNA vs non-treated HaCaT cells [2]: decreased; expression level of TIMP-1 mRNA vs non-treated HaCaT cells (in words) [3]: increase of the expression level of TIMP-1 was not observed
